In patent US20060216726A1, “Method for optimizing thiopurine efficacy and toxicity using mass spectrometry” (Prometheus Laboratories Inc., priority 2004, published 2006):
Some entries share one result that the patent states for a list of compounds.

Assay: Stability of stock solutions of standards
Format: physicochemical
Details: 800 and 8000 μM in water, stored at −70° C.

Stability of stock solution | SMILES
at least 12 months | CSc1ncnc2nc[nH]c12 [6-MMP, 6-methylmercaptopurine]
at least 12 months | Nc1nc2nc[nH]c2c(=S)[nH]1 [6-TG, 6-thioguanine]
